Measured values taken from PubChem BioAssay AID2685 (National Center for Advancing Translational Sciences (NCATS), 2010).
The other results are listed elsewhere or left out. Further columns of the screen follow, without active or inactive calls. The list favours compounds with an active or inconclusive main result. Potencies come from curve fits of mixed quality, noted in brackets.

Assay: qHTS Assay for Lipid Storage Modulators in Drosophila S3 Cells;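 on cell number change: cells counted by Cell Tracker Red CMTPX staining in the red channel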
Conditions: BODIPY lipid droplet fluorescence, 18-24 h; for cell number change: measured here: cell count max response, cells fed with added oleic acid
Summary of the method: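 Laser-scanning cytometry quantifies lipid droplet accumulation (500–530 nm total intensity; droplet/cell object ratio) in oleic acid-fed (400 uM added) Drosophila S3 cells treated with a concentration series. 20 uM Triacsin C defined 100% inhibition.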

[1] = measured here: lipid fluorescence (Fed channel) AC50, cells fed with added oleic acid
[2] = measured here: cell number channel AC50, cells fed with added oleic acid

COc1ccccc1N1CCN(C(=O)NC23CC4CC(CC(C4)C2)C3)CC1
cell number change: -4.78%

CC(=O)N/C(=C/c1ccccc1)c1ccccc1
cell number change: -21.3%
AC50 [1]: 2.31 µM [rising, partial curve]

Cc1oc(-c2ccc(Cl)cc2)nc1CN1CCC(C(=O)NCCCN2CCCC(C)C2)CC1 (stereo unspecified)
AC50 [1]: 0.58 µM [rising, partial curve]

CCOc1cc(/C=N/NC(=O)c2nn(C)cc2Br)ccc1OCc1ccccc1
AC50 [2]: 3.26 µM [rising, single point]
AC50 [1]: 20.6 µM [rising, partial curve]

COc1ccc(C(C(=O)NCc2ccccc2)N(C(=O)c2snc(C(N)=O)c2N)C2CCCC2)cc1O (stereo unspecified)
cell number change: 10.3%

O=C(O)COc1ccc(/C=N/NC(=O)C2CCCN2S(=O)(=O)c2ccc(Cl)cc2)cc1 (stereo unspecified)
AC50 [2]: 0.731 µM [falling, single point]

CCCCC(=O)NCc1ccccc1Cl
cell number change: -15%

O=C(Nc1nnc(CCc2ccccc2)s1)c1cccs1
cell number change: -2.66%

CCOC(=O)C1CCCN(C(=O)c2cc3c(=O)n(C)c4ccccc4c3n2C)C1 (stereo unspecified)
cell number change: -33%
AC50 [2]: 5.17 µM [falling, partial curve, poor fit]
AC50 [1]: 8.2 µM [falling, partial curve]

C=CCN1C(=O)c2ccc(C(=O)N(C)CC(=O)Nc3ccccc3C(F)(F)F)cc2C1=O
cell number change: -11.1%
AC50 [1]: 0.366 µM [falling, full curve, poor fit]

CCc1cc(=O)oc2cc(OC(C)C(=O)NCCCn3ccnc3)ccc12 (stereo unspecified)
cell number change: 22%

O=C(COC(=O)c1ccc2c(c1)OCCO2)NCc1ccccc1
cell number change: 11.9%
AC50 [1]: 0.00461 µM [falling, full curve, poor fit]

C=C(C)COc1ccc(-c2ncncc2-c2ccccc2)c(O)c1
cell number change: 0.472%
AC50 [1]: 0.651 µM [falling, full curve, poor fit]

O=C1CC(N2CCOCC2)C(=O)N1CCc1ccccc1 (stereo unspecified)
cell number change: -23.3%
AC50 [2]: 2.31 µM [falling, single point]
AC50 [1]: 32.6 µM [falling, partial curve, poor fit]

C/C(=N\NC(=S)Nc1ccc(C(C)C)cc1)c1ccc2c(c1)OCO2
cell number change: 22.3%
AC50 [2]: 0.517 µM [rising, full curve, poor fit]
AC50 [1]: 1.3 µM [rising, full curve]

CCCSc1ccc([C@@H]2[C@@H]3C(=O)N(C)C(=O)[C@@H]3[C@]3(C(=O)OC)CCCCN23)cc1OC
cell number change: -43.4%
AC50 [2]: 29.1 µM [falling, single point]

COc1cc(S(=O)(=O)NCC2OCCc3ccccc32)ccc1-n1cnnn1 (stereo unspecified)
cell number change: -40.9%
AC50 [2]: 29.1 µM [falling, single point]

Cc1ccsc1/C=N/NS(=O)(=O)c1ccc([N+](=O)[O-])cc1
cell number change: 1.06%
AC50 [1]: 29.1 µM [rising, single point]

O=C(Nc1ccc(N2CCOCC2)nc1N1CCOCC1)c1cccc(C(F)(F)F)c1
cell number change: 31.1%
AC50 [2]: 9.2 µM [rising, partial curve]
AC50 [1]: 11.6 µM [rising, partial curve, poor fit]

Cc1ccc(OCc2ccc(C(=O)N3CCCC3)o2)cc1C
cell number change: 3.78%

CCN1CCN(c2ccc(S(=O)(=O)N3CCCCC3)cc2NC(=O)Cc2ccc(Cl)c(Cl)c2)CC1
cell number change: 180%

O=c1c(Cl)c(N2CCC3(CC2)OCCO3)cnn1C12CC3CC(CC(C3)C1)C2
cell number change: 9.71%
AC50 [1]: 16.4 µM [rising, single point]

NS(=O)(=O)c1ccc(CCNC(=O)C(=O)C2C(=O)Nc3ccccc32)cc1 (stereo unspecified)
cell number change: -13.7%
AC50 [1]: 0.651 µM [falling, full curve, poor fit]

CCc1ccc(/C=C2\SC(=S)N(CCCC(=O)Nc3ccccc3C(=O)O)C2=O)cc1
cell number change: -7.37%
AC50 [2]: 0.92 µM [rising, partial curve]

O=C(O)CC(NS(=O)(=O)c1cccc2nsnc12)c1ccc(F)cc1 (stereo unspecified)
cell number change: 18.5%
AC50 [1]: 32.6 µM [rising, single point]

COCCn1ccc2c(OCC(=O)Nc3ccccc3OC)cccc2c1=O
AC50 [2]: 1.84 µM [rising, partial curve]

Cc1ccc(S(=O)(=O)N(C)c2ccc(C(=O)N3CCc4ccccc4C3)cc2)cc1
cell number change: -24.2%
AC50 [1]: 6.51 µM [rising, single point]

CN1OCC(S(=O)(=O)c2ccccc2)C1c1ccccc1 (stereo unspecified)
cell number change: -11%

COc1ccc(CCNc2cc(N3CCN(C(=O)c4ccccc4F)CC3)ccc2[N+](=O)[O-])cc1OC
AC50 [2]: 0.731 µM [falling, partial curve, poor fit]

O=C(COC(=O)c1cc(Cl)ccc1Cl)NC1CCCC1
cell number change: -10.3%

COc1ccc(CCNC(=O)c2cc3cccc(OC)c3oc2=O)cc1OC
cell number change: -39.7%
AC50 [2]: 6.51 µM [falling, partial curve, poor fit]

CCN(CC)CC#CC(C)OCOCC#CCOC (stereo unspecified)
cell number change: -16.2%

Cc1noc(C)c1COc1ccccc1C(=O)NC(C)c1ccc(Cl)cc1 (stereo unspecified)
cell number change: 11.1%
AC50 [2]: 0.13 µM [falling, full curve, poor fit]

Cc1cccc(N(CC(=O)N=Nc2c(O)[nH]c3ccccc23)S(C)(=O)=O)c1C
cell number change: 1.25%
AC50 [2]: 0.092 µM [falling, full curve, poor fit]
AC50 [1]: 0.13 µM [falling, full curve]

COC(=O)[C@H](Cc1ccccc1)NC(=O)O[C@H]1C(=O)c2ccc(OC)cc2O[C@@H]1c1ccc2c(c1)OCO2
cell number change: 13.4%
AC50 [1]: 4.61 µM [rising, partial curve]

COc1ccccc1NC(=O)COc1ccc(/C=N/NC(=O)c2cccnc2)cc1
cell number change: -10.6%

CCCCc1cc(=O)oc2c(C)c(OCc3nn[nH]n3)ccc12
cell number change: 23.1%
AC50 [1]: 0.00517 µM [rising, full curve, poor fit]

CC(=O)c1cc(C#N)c(Oc2cc(C)cc(C)c2)nc1C
cell number change: 9.42%

CCOC(=O)CSC1=C(C#N)C(c2ccc(C)s2)CC(=O)N1 (stereo unspecified)
cell number change: -4.27%
AC50 [1]: 18.4 µM [falling, partial curve, poor fit]

O=C(CSCc1ccc(Cl)cc1)Nc1ccc(S(=O)(=O)N2CCCCCC2)cc1
cell number change: -17.5%
AC50 [1]: 10.3 µM [falling, partial curve, poor fit]

Cc1ccc(-c2csc(=S)n2CC(=O)OCC(=O)NCc2ccco2)cc1
cell number change: -36.4%
AC50 [2]: 29.1 µM [falling, single point]
AC50 [1]: 29.1 µM [falling, single point]

CCCCn1c(O)c(N=Nc2ccccc2O)c2ccccc21
cell number change: -74%
AC50 [2]: 16.4 µM [falling, single point]

O=C(CSc1nnnn1C1CC1)Nc1cccc(S(=O)(=O)N2CCCC2)c1
cell number change: -18.5%
AC50 [1]: 16.4 µM [falling, single point]

O=C(NC1CC1)[C@@H]1CSC2c3ccccc3C(=O)N21 (stereo partly specified)
cell number change: 12.8%

CC(=O)c1sc(NC(=O)CCCc2nc3ccccc3c(=O)[nH]2)nc1-c1ccccc1
cell number change: -0.634%

CCCCOC(=O)Nc1ccc(N2CCCCC2)cc1
cell number change: -44.3%
AC50 [2]: 29.1 µM [falling, single point]
AC50 [1]: 0.00517 µM [rising, full curve, poor fit]

O=C1CN(S(=O)(=O)c2ccc(Cl)cc2)CC(=O)N1CCc1ccccc1
cell number change: 22.9%
AC50 [1]: 6.51 µM [falling, single point]

Cc1ccc(S(=O)(=O)c2c(N)n(CCCO)c3nc4ccccc4nc23)cc1
cell number change: 8.95%
AC50 [1]: 5.8 µM [rising, partial curve]

COc1cccc(NC(=O)CN(C)C(=O)CC(C)c2ccccc2)c1 (stereo unspecified)
cell number change: 10.8%
AC50 [2]: 0.82 µM [rising, partial curve]
AC50 [1]: 18.4 µM [falling, single point]

COc1ccc(NS(=O)(=O)c2csc(C(N)=O)c2)cc1
cell number change: -21.8%
AC50 [2]: 0.731 µM [rising, single point]

O=C(O)c1c[nH]c2ccc(S(=O)(=O)N3CCN(c4ccc(F)cc4)CC3)cc2c1=O
cell number change: -19.2%
AC50 [1]: 6.51 µM [falling, single point]

O=[N+]([O-])c1ccc(N2CCN(c3ccc(F)cc3)CC2)nc1
cell number change: -25.4%
AC50 [1]: 13 µM [falling, partial curve, poor fit]

COc1ccc(CNC(=O)CN(C(=O)CCC(=O)Nc2nccs2)c2ccc3c(c2)OCO3)cc1
cell number change: 159%
AC50 [2]: 20.6 µM [rising, partial curve]
AC50 [1]: 29.1 µM [falling, single point]

COCc1ccc(CN2CCC(C(=O)Nc3cccc(-c4cccc(Cl)c4)c3)CC2)o1
cell number change: -27.9%
AC50 [1]: 16.4 µM [falling, partial curve]

C=CCOc1nc(N2CCCC2)nc(N2CCCC2)n1
cell number change: 156%
AC50 [2]: 18.4 µM [rising, partial curve]

Cc1cc(C)n(CCCNC(=O)c2ccc(C)o2)n1
cell number change: -32.9%
AC50 [2]: 5.17 µM [falling, full curve]
AC50 [1]: 0.146 µM [rising, full curve, poor fit]

COc1ccc(C(=O)NC(=S)Nc2cccc(S(=O)(=O)N3CCOCC3)c2)cc1
cell number change: 7.57%

N=c1oc2c3c4c(cc2cc1C(=O)Nc1ccccc1)CCCN4CCC3
AC50 [1]: 13 µM [falling, partial curve, poor fit]

CCN(CC(=O)NCc1cccs1)C(=O)c1ccc(S(=O)(=O)N(C)C)cc1
cell number change: 58.1%
AC50 [2]: 20.6 µM [rising, single point]
AC50 [1]: 13 µM [rising, partial curve]

Cn1c(SCC(=O)NC2CCCCCC2)nnc1-c1ccco1
cell number change: 3.96%
AC50 [1]: 29.1 µM [falling, single point]
